In US20040229810A1, “Gastrin compositions and formulations, and methods of use and preparation” (priority 2002, published 2004):
At least one compound was matched to its structure with a doubt left. Where a SMILES comes first, the peptide text is derived from it. [ ]: non-standard residue; d: D form. pGlu = O=C1CC[C@@H](C(=O)O)N1

Tested on: NOD mice with recent onset diabetes
Test: Effect of unmodified gastrin on fasting blood glucose and pancreatic insulin content in NOD mice with recent onset diabetes
Assay type: in vivo
Details: 3 μg/kg/day i.p. once daily for 14 days

## CC(C)C[C@H](NC(=O)[C@H](Cc1c[nH]c2ccccc12)NC(=O)CNC(=O)[C@H](Cc1ccc(O)cc1)NC(=O)[C@H](C)NC(=O)[C@H](CCC(=O)O)NC(=O)[C@H](CCC(=O)O)NC(=O)[C@H](CCC(=O)O)NC(=O)[C@H](CCC(=O)O)NC(=O)[C@H](CCC(=O)O)NC(=O)[C@H](CC(C)C)NC(=O)[C@H](Cc1c[nH]c2ccccc12)NC(=O)[C@@H]1CCCN1C(=O)CNC(=O)[C@@H]1CCC(=O)N1)C(=O)N[C@@H](CC(=O)O)C(=O)N[C@@H](Cc1ccccc1)C(N)=O [Compound B] ([pGlu]GPWLEEEEEAYGWLDF-NH2)
Day 35, FIG. 2
  pancreatic insulin levels: about 0.6 ug of insulin/pancreas
Day 35 vs day 0, FIG. 2
  pancreatic insulin levels in comparison with pretreatment values: significantly elevated levels of pancreatic insulin levels
Day 35 vs day 0, vs vehicle, FIG. 1
  fasting blood glucose levels (FBG): prevented some of the increase in glucose levels from rising
